Assay [1] deals with T1, YFP–CYP2J5 fusion protein (mouse) (UniProt O54749).
T1 sequence: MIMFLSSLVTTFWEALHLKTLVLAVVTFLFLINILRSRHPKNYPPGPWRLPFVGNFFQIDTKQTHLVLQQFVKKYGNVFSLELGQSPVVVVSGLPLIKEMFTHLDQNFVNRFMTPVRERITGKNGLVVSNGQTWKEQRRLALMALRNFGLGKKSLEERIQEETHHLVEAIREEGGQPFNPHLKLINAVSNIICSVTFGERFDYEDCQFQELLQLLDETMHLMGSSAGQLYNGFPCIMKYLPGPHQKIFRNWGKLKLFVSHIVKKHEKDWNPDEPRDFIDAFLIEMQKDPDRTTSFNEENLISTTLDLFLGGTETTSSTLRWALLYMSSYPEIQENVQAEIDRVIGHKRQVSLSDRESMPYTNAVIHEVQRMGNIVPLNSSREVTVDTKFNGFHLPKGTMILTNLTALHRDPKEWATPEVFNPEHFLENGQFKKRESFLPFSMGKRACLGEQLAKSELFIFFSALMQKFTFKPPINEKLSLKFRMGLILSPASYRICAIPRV
Briefly: FRET or BRET; FACS-based FRET (FAMPIR), sensitized emission, living HEK293 cells 48 h after transfection; YFP and CFP fused to the ER-luminal N-termini, both partners from one P2A transcript; cells gated for YFP and CFP expression.

Assay [2] deals with T2, CYP2J5, endogenous in mouse hippocampal neurons (mouse (endogenous in primary hippocampal neurons)) (UniProt O54749).
T2 sequence: T1 sequence
The experiment in a line: proximity ligation; Duolink in situ PLA on methanol-fixed primary mouse hippocampal neurons (WT, with mEH-/- neurons as control); rabbit anti-CYP2J2 and goat anti-rat mEH primary antibodies.

Results are given in words; binding and its absence hold for the method and conditions named. Binding seen in cells or lysates may run through a third protein. Some entries that bind do so weakly or less than the wild type. For part of these data: Where a sequence is shown, tags or fusion partners need not be part of it.

Results on three molecules are retold here after article PMC5696493.

B1: CFP–mEH fusion protein (mouse microsomal epoxide hydrolase) (enzyme, UniProt Q9D379 1-455)
chain: MWLELILASVLGFVIYWFVSRDKEETLPLEDGWWGPGSKPSAKEDESIRPFKVETSDEEIKDLHQRIDRFRASPPLEGSRFHYGFNSSYLKKVVSFWRNEFDWRKQVEILNQYPHFKTKIEGLDIHFIHVKPPQLPSGRTPKPLLMVHGWPGSFYEFYKIIPLLTDPKTHGLSDEHVFEVICPSIPGYGFSEASSKKGLNSVATARIFYKLMSRLGFQKFYIQGGDWGSLICTNIAQMVPNHVKGLHLNMSFISRNIYSLTPLLGQRFGRFLGYTEKDLELLYPFKEKVFYNIMRESGYLHIQATKPDTVGCALNDSPVGLAAYILEKFSTWTKSEYRELEDGGLERKFSLEDLLTNIMIYWTTGTIVSSQRFYKENLGQGVMVHRHEGMKVFVPTGYSAFPSEILHAPEKWVKVKYPKLISYSYMERGGHFAAFEEPKLLAQDIRKFVSLAELQ
For B1, the binding result in assay [1] is “binds”.

B2: microsomal epoxide hydrolase (mEH), endogenous in mouse hippocampal neurons (enzyme, UniProt Q9D379 1-455)
chain: B1 chain
Regarding B2, the binding result in assay [2] is reported as “binds”.

B3: CFP–CPR fusion protein (mouse cytochrome P450 reductase) (enzyme, UniProt P37040 1-678)
chain: MGDSHEDTSATVPEAVAEEVSLFSTTDIVLFSLIVGVLTYWFIFKKKKEEIPEFSKIQTTAPPVKESSFVEKMKKTGRNIIVFYGSQTGTAEEFANRLSKDAHRYGMRGMSADPEEYDLADLSSLPEIDKSLVVFCMATYGEGDPTDNAQDFYDWLQETDVDLTGVKFAVFGLGNKTYEHFNAMGKYVDQRLEQLGAQRIFELGLGDDDGNLEEDFITWREQFWPAVCEFFGVEATGEESSIRQYELVVHEDMDTAKVYTGEMGRLKSYENQKPPFDAKNPFLAAVTTNRKLNQGTERHLMHLELDISDSKIRYESGDHVAVYPANDSTLVNQIGEILGADLDVIMSLNNLDEESNKKHPFPCPTTYRTALTYYLDITNPPRTNVLYELAQYASEPSEQEHLHKMASSSGEGKELYLSWVVEARRHILAILQDYPSLRPPIDHLCELLPRLQARYYSIASSSKVHPNSVHICAVAVEYEAKSGRVNKGVATSWLRTKEPAGENGRRALVPMFVRKSQFRLPFKPTTPVIMVGPGTGVAPFMGFIQERAWLREQGKEVGETLLYYGCRRSDEDYLYREELARFHKDGALTQLNVAFSREQAHKVYVQHLLKRDKEHLWKLIHEGGAHIYVCGDARNMAKDVQNTFYDIVAEFGPMEHTQAVDYVKKLMTKGRYSLDVWS
Consider B3, for which, in assay [1], the binding entry is “binds”.
